# From the supplement of paper PMC8728848
# The other results are listed elsewhere or left out.
# Experiments:
# Experiment in all cases: glycan array binding signal (z-score within array); higher = stronger binding
# Conditions in all cases: glycan notation: IUPAC condensed, linker removed
# Neu5Ac(a2-3)Gal = molecular target: Neu5Ac(a2-3)Gal
# Procedure, shortened: (§1)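 Glycan array binding is given as a within-array Z-score, which can be read as non-binding when negative. The arrays, 3228 of them, came from the Consortium for Functional Glycomics database and were retained only where the protein sequence was available. Z-scores were averaged across arrays of the same protein sequence at different concentrations or buffers and across linkers.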
# [1] = molecular target: Neu5Ac(a2-3)Gal(b1-3)GalNAc
# Procedure, shortened: as §1
# [2] = molecular target: Neu5Ac(a2-3)Gal(b1-3)GalNAc(b1-3)Gal(a1-4)Gal(b1-4)Glc
# Procedure, shortened: as §1
# [3] = molecular target: Neu5Ac(a2-3)Gal(b1-3)GalNAc(b1-4)Gal(b1-4)Glc
# Procedure, shortened: as §1
# [4] = molecular target: Neu5Ac(a2-3)Gal(b1-3)GalNAc(b1-4)[Neu5Ac(a2-3)]Gal(b1-4)Glc
# Procedure, shortened: as §1
# [5] = molecular target: Neu5Ac(a2-3)Gal(b1-3)GalNAc(b1-4)[Neu5Ac(a2-8)Neu5Ac(a2-3)]Gal(b1-4)Glc
# Procedure, shortened: as §1
# [6] = molecular target: Neu5Ac(a2-3)Gal(b1-3)GalNAc6S
# Procedure, shortened: as §1
# [7] = molecular target: Neu5Ac(a2-3)Gal(b1-3)GlcNAc
# Procedure, shortened: as §1
# [8] = molecular target: Neu5Ac(a2-3)Gal(b1-3)GlcNAc(b1-2)Man
# Procedure, shortened: as §1
# [9] = molecular target: Neu5Ac(a2-3)Gal(b1-3)GlcNAc(b1-2)Man(a1-3)[GlcNAc(b1-4)][Neu5Ac(a2-3)Gal(b1-3)GlcNAc(b1-2)Man(a1-6)]Man(b1-4)GlcNAc(b1-4)GlcNAc
# Procedure, shortened: as §1
# [10] = molecular target: Neu5Ac(a2-3)Gal(b1-3)GlcNAc(b1-2)Man(a1-3)[Neu5Ac(a2-3)Gal(b1-3)GlcNAc(b1-2)Man(a1-6)]Man(b1-4)GlcNAc(b1-4)GlcNAc
# Procedure, shortened: as §1
# [11] = molecular target: Neu5Ac(a2-3)Gal(b1-3)GlcNAc(b1-2)[Neu5Ac(a2-3)Gal(b1-3)GlcNAc(b1-4)]Man(a1-6)[Neu5Ac(a2-3)Gal(b1-3)GlcNAc(b1-2)Man(a1-3)]Man(b1-4)GlcNAc(b1-4)GlcNAc
# Procedure, shortened: as §1
# [12] = molecular target: Neu5Ac(a2-3)Gal(b1-3)GlcNAc(b1-3)Gal(b1-3)GlcNAc
# Procedure, shortened: as §1
# [13] = molecular target: Neu5Ac(a2-3)Gal(b1-3)GlcNAc(b1-3)Gal(b1-4)GlcNAc
# Procedure, shortened: as §1
# [14] = molecular target: Neu5Ac(a2-3)Gal(b1-3)GlcNAc(b1-3)GalNAc
# Procedure, shortened: as §1
# [15] = molecular target: Neu5Ac(a2-3)Gal(b1-3)GlcNAc(b1-6)GalNAc
# Procedure, shortened: as §1
# [16] = molecular target: Neu5Ac(a2-3)Gal(b1-3)GlcNAc6S
# Procedure, shortened: as §1
# [17] = molecular target: Neu5Ac(a2-3)Gal(b1-3)[Fuc(a1-4)]GlcNAc
# Procedure, shortened: as §1
# [18] = molecular target: Neu5Ac(a2-3)Gal(b1-3)[Fuc(a1-4)]GlcNAc(b1-3)Gal(b1-3)[Fuc(a1-4)]GlcNAc
# Procedure, shortened: as §1
# [19] = molecular target: Neu5Ac(a2-3)Gal(b1-3)[Fuc(a1-4)]GlcNAc(b1-3)Gal(b1-4)[Fuc(a1-3)]GlcNAc
# Procedure, shortened: as §1
# [20] = molecular target: Neu5Ac(a2-3)Gal(b1-3)[GlcNAc(b1-6)]GalNAc
# Procedure, shortened: as §1
# [21] = molecular target: Neu5Ac(a2-3)Gal(b1-3)[Neu5Ac(a2-6)]GalNAc
# Procedure, shortened: as §1
# [22] = molecular target: Neu5Ac(a2-3)Gal(b1-3)[Neu5Ac(a2-6)]GlcNAc(b1-3)[Fuc(a1-3)[Gal(b1-4)]GlcNAc(b1-6)]Gal(b1-4)Glc
# Procedure, shortened: as §1
# [23] = molecular target: Neu5Ac(a2-3)Gal(b1-3)]Neu5Ac(a2-3)Gal(b1-4)]GlcNAc
# Procedure, shortened: as §1
# Neu5Ac(a2-3)Gal(b1-4)Glc = molecular target: Neu5Ac(a2-3)Gal(b1-4)Glc
# Procedure, shortened: as §1
# [24] = molecular target: Neu5Ac(a2-3)Gal(b1-4)GlcNAc
# Procedure, shortened: as §1
# [25] = molecular target: Neu5Ac(a2-3)Gal(b1-4)GlcNAc(b1-2)Man
# Procedure, shortened: as §1
# [26] = molecular target: Neu5Ac(a2-3)Gal(b1-4)GlcNAc(b1-2)Man(a1-3)[GlcNAc(b1-4)][Neu5Ac(a2-3)Gal(b1-4)GlcNAc(b1-2)Man(a1-6)]Man(b1-4)GlcNAc(b1-4)GlcNAc
# Procedure, shortened: as §1
# [27] = molecular target: Neu5Ac(a2-3)Gal(b1-4)GlcNAc(b1-2)Man(a1-3)[Neu5Ac(a2-3)Gal(b1-4)GlcNAc(b1-2)Man(a1-6)]Man(b1-4)GlcNAc(b1-4)GlcNAc
# Procedure, shortened: as §1
# [28] = molecular target: Neu5Ac(a2-3)Gal(b1-4)GlcNAc(b1-2)Man(a1-3)[Neu5Ac(a2-3)Gal(b1-4)GlcNAc(b1-2)Man(a1-6)]Man(b1-4)GlcNAc(b1-4)[Fuc(a1-6)]GlcNAc
# Procedure, shortened: as §1
# [29] = molecular target: Neu5Ac(a2-3)Gal(b1-4)GlcNAc(b1-2)Man(a1-3)[Neu5Ac(a2-6)Gal(b1-4)GlcNAc(b1-2)Man(a1-6)]Man(b1-4)GlcNAc(b1-4)GlcNAc
# Procedure, shortened: as §1
# [30] = molecular target: Neu5Ac(a2-3)Gal(b1-4)GlcNAc(b1-2)[Neu5Ac(a2-3)Gal(b1-4)GlcNAc(b1-4)]Man(a1-3)[GlcNAc(b1-4)][Neu5Ac(a2-3)Gal(b1-4)GlcNAc(b1-2)[Neu5Ac(a2-3)Gal(b1-4)GlcNAc(b1-6)]Man(a1-6)]Man(b1-4)GlcNAc(b1-4)GlcNAc
# Procedure, shortened: as §1
# [31] = molecular target: Neu5Ac(a2-3)Gal(b1-4)GlcNAc(b1-2)[Neu5Ac(a2-3)Gal(b1-4)GlcNAc(b1-4)]Man(a1-3)[GlcNAc(b1-4)][Neu5Ac(a2-3)Gal(b1-4)GlcNAc(b1-4)Man(a1-6)]Man(b1-4)GlcNAc(b1-4)GlcNAc
# Procedure, shortened: as §1
# [32] = molecular target: Neu5Ac(a2-3)Gal(b1-4)GlcNAc(b1-2)[Neu5Ac(a2-3)Gal(b1-4)GlcNAc(b1-6)]Man(a1-6)[Neu5Ac(a2-3)Gal(b1-4)GlcNAc(b1-2)Man(a1-3)][GlcNAc(b1-4)]Man(b1-4)GlcNAc(b1-4)GlcNAc
# Procedure, shortened: as §1
# [33] = molecular target: Neu5Ac(a2-3)Gal(b1-4)GlcNAc(b1-3)Gal
# Procedure, shortened: as §1
# [34] = molecular target: Neu5Ac(a2-3)Gal(b1-4)GlcNAc(b1-3)Gal(b1-3)GlcNAc
# Procedure, shortened: as §1
# [35] = molecular target: Neu5Ac(a2-3)Gal(b1-4)GlcNAc(b1-3)Gal(b1-4)GlcNAc
# Procedure, shortened: as §1
# [36] = molecular target: Neu5Ac(a2-3)Gal(b1-4)GlcNAc(b1-3)Gal(b1-4)GlcNAc(b1-2)Man(a1-3)[Neu5Ac(a2-3)Gal(b1-4)GlcNAc(b1-3)Gal(b1-4)GlcNAc(b1-2)Man(a1-6)]Man(b1-4)GlcNAc(b1-4)GlcNAc
# Procedure, shortened: as §1
# [37] = molecular target: Neu5Ac(a2-3)Gal(b1-4)GlcNAc(b1-3)Gal(b1-4)GlcNAc(b1-3)Gal(b1-4)GlcNAc
# Procedure, shortened: as §1
# [38] = molecular target: Neu5Ac(a2-3)Gal(b1-4)GlcNAc(b1-3)Gal(b1-4)GlcNAc(b1-3)Gal(b1-4)GlcNAc(b1-2)Man(a1-3)[Neu5Ac(a2-3)Gal(b1-4)GlcNAc(b1-3)Gal(b1-4)GlcNAc(b1-3)Gal(b1-4)GlcNAc(b1-2)Man(a1-6)]GalNAc
# Procedure, shortened: as §1
# [39] = molecular target: Neu5Ac(a2-3)Gal(b1-4)GlcNAc(b1-3)Gal(b1-4)GlcNAc(b1-3)GalNAc
# Procedure, shortened: as §1
# [40] = molecular target: Neu5Ac(a2-3)Gal(b1-4)GlcNAc(b1-3)Gal(b1-4)GlcNAc(b1-3)[Neu5Ac(a2-3)Gal(b1-4)GlcNAc(b1-3)Gal(b1-4)GlcNAc(b1-6)]GalNAc
# Procedure, shortened: as §1
# [41] = molecular target: Neu5Ac(a2-3)Gal(b1-4)GlcNAc(b1-3)Gal(b1-4)GlcNAc(b1-6)[Gal(b1-3)]GalNAc
# Procedure, shortened: as §1
# [42] = molecular target: Neu5Ac(a2-3)Gal(b1-4)GlcNAc(b1-3)Gal(b1-4)[Fuc(a1-3)]GlcNAc
# Procedure, shortened: as §1
# [43] = molecular target: Neu5Ac(a2-3)Gal(b1-4)GlcNAc(b1-3)GalNAc
# Procedure, shortened: as §1
binder,measurement,setting,value
"FGF1 (Homo sapiens), P05230 (protein) MAEGEITTFTALTEKFNLPPGNYKKPKLLYSNGGHFLRILPDGTVDGTRDRSDQHIQLQLSAESVGEVYIKSTETGQYLAMTDGLLYGSQTPNEECLFLERLEENHYNTYISKHAEKNWFVGLKKNGSCKRGPRTHYGQAILFLPLPASSED",glycan array binding signal (z-score),Neu5Ac(a2-3)Gal,-0.196
same,glycan array binding signal (z-score),[1],0.143
same,glycan array binding signal (z-score),[2],-0.299
same,glycan array binding signal (z-score),[3],-0.819
same,glycan array binding signal (z-score),[4],-0.511
same,glycan array binding signal (z-score),[5],-0.85
same,glycan array binding signal (z-score),[6],0.045
same,glycan array binding signal (z-score),[7],0.757
same,glycan array binding signal (z-score),[8],-0.797
same,glycan array binding signal (z-score),[9],0.01
same,glycan array binding signal (z-score),[10],4.88
same,glycan array binding signal (z-score),[11],1.02
same,glycan array binding signal (z-score),[12],-0.881
same,glycan array binding signal (z-score),[13],-0.691
same,glycan array binding signal (z-score),[14],-0.187
same,glycan array binding signal (z-score),[15],-0.537
same,glycan array binding signal (z-score),[16],1.43
same,glycan array binding signal (z-score),[17],-0.174
same,glycan array binding signal (z-score),[18],-0.247
same,glycan array binding signal (z-score),[19],0.434
same,glycan array binding signal (z-score),[20],-0.601
same,glycan array binding signal (z-score),[21],0.473
same,glycan array binding signal (z-score),[22],-0.432
same,glycan array binding signal (z-score),[23],-0.971
same,glycan array binding signal (z-score),Neu5Ac(a2-3)Gal(b1-4)Glc,0.546
same,glycan array binding signal (z-score),[24],-0.519
same,glycan array binding signal (z-score),[25],5.56
same,glycan array binding signal (z-score),[26],-0.826
same,glycan array binding signal (z-score),[27],-0.84
same,glycan array binding signal (z-score),[28],-0.801
same,glycan array binding signal (z-score),[29],-0.888
same,glycan array binding signal (z-score),[30],-0.618
same,glycan array binding signal (z-score),[31],-0.334
same,glycan array binding signal (z-score),[32],-0.625
same,glycan array binding signal (z-score),[33],-0.867
same,glycan array binding signal (z-score),[34],-0.884
same,glycan array binding signal (z-score),[35],-0.791
same,glycan array binding signal (z-score),[36],0.262
same,glycan array binding signal (z-score),[37],-0.117
same,glycan array binding signal (z-score),[38],0.631
same,glycan array binding signal (z-score),[39],-0.451
same,glycan array binding signal (z-score),[40],0.416
same,glycan array binding signal (z-score),[41],-0.573
same,glycan array binding signal (z-score),[42],-0.732
same,glycan array binding signal (z-score),[43],-0.219

# Reformatted as tab-separated lines: entries from further up
binder	measurement	setting	value
FGF1 (Homo sapiens), P05230 (protein) MAEGEITTFTALTEKFNLPPGNYKKPKLLYSNGGHFLRILPDGTVDGTRDRSDQHIQLQLSAESVGEVYIKSTETGQYLAMTDGLLYGSQTPNEECLFLERLEENHYNTYISKHAEKNWFVGLKKNGSCKRGPRTHYGQAILFLPLPASSED	glycan array binding signal (z-score)	[5]	-0.85
same	glycan array binding signal (z-score)	[6]	0.045
same	glycan array binding signal (z-score)	[7]	0.757
same	glycan array binding signal (z-score)	[8]	-0.797
same	glycan array binding signal (z-score)	[9]	0.01
same	glycan array binding signal (z-score)	[10]	4.88
same	glycan array binding signal (z-score)	[11]	1.02
same	glycan array binding signal (z-score)	[12]	-0.881
same	glycan array binding signal (z-score)	[13]	-0.691
same	glycan array binding signal (z-score)	[14]	-0.187
same	glycan array binding signal (z-score)	[15]	-0.537
